Results are given in words; binding and its absence hold for the method and conditions named. In cells and extracts the contact can be indirect. For some assays here: Binding calls can cover weak binding; strength is not graded here. For some assays here: Tags and fused reporters may be left off the sequences shown. Values belong to the molecule of their own block, whether it stands above or below them.
Tests used:
[1] = biological target: T1, HA-MmSTING (STING of Mus musculus), expressed in HEK 293T (Mus musculus) (UniProt Q3TBT3); assay: co-IP; HA-immunoprecipitation (anti-HA agarose) on whole-cell extracts of HEK 293T transiently co-expressing HA-STING and FADS-FLAG; TENTG-150 buffer, 4 h at 4 °C; HA peptide elution; Western blot
T1 sequence: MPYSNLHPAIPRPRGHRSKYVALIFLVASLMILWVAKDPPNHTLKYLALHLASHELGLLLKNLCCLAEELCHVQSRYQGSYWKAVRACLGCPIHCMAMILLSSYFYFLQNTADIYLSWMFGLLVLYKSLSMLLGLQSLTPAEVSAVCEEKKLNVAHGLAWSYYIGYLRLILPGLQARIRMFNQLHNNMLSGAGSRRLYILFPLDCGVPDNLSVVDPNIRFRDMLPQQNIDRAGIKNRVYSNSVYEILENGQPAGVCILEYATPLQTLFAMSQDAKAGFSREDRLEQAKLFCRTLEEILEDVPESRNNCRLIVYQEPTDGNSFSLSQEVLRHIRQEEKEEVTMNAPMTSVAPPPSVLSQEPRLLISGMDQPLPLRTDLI

Amino acid sequences for entries named in this document (tags omitted). A change or cut given only in a name is not applied to a line headed by its entry.
UniProt Q86WV6: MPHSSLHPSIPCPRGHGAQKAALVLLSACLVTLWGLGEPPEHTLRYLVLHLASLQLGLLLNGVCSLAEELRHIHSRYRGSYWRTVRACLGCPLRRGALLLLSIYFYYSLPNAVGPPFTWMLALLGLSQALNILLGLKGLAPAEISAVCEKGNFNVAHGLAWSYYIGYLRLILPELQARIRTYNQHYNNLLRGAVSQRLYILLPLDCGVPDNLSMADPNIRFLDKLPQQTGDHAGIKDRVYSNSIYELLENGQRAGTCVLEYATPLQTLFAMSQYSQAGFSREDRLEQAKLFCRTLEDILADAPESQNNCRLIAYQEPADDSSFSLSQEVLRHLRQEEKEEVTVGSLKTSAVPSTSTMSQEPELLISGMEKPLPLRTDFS

[2] = biological target: DmSTING (STING homolog of Drosophila melanogaster) (Drosophila melanogaster); assay: co-IP; co-immunoprecipitation of HA-tagged STING homologs and mutants with MmFADS2 (Supplementary Fig. 5B-F); cells and precipitated tag not told in the text shown
[3] = biological target: HA-tagged CgSTING (STING homolog of the mollusk Crassostrea gigas) (Crassostrea gigas); assay: as above
[4] = biological target: HA-tagged DrSTINGΔCTT (DrSTING with the C-terminal tail ablated) (Danio rerio); assay: as above
[5] = biological target: HA-tagged FsSTING (STING homolog of the bacterium Flavobacteriaceae sp.) (Flavobacteriaceae sp.); assay: as above
[6] = biological target: HA-tagged MmSTINGΔCTT (MmSTING with the C-terminal tail ablated) (Mus musculus); assay: as above
[7] = biological target: HA-MbSTING (STING homolog of Monosiga brevicollis), expressed in HEK 293T (Monosiga brevicollis); assay: co-IP; HA-immunoprecipitation (anti-HA agarose) on whole-cell extracts of HEK 293T transiently co-expressing HA-STING and FADS-FLAG; TENTG-150 buffer, 4 h at 4 °C; HA peptide elution; Western blot
[8] = biological target: HA-MmSTINGΔCTTΔCBD (MmSTING mutant comprising the TMD alone) (Mus musculus); assay: as above
[9] = biological target: HA-XtSTING (STING of Xenopus tropicalis), expressed in HEK 293T (Xenopus tropicalis); assay: as above
[10] = biological target: HA-MbSTING stably expressed in MEF Sting-/- (MEF^MbSTING) (Monosiga brevicollis); assay: co-IP; HA-immunoprecipitation on whole-cell extracts of MEF Sting-/- stably expressing HA-STING homologs; endogenous FADS2 detected by Western blot; TENTG-150 buffer, HA peptide elution
[11] = biological target: HA-XtSTING stably expressed in MEF Sting-/- (MEF^XtSTING) (Xenopus tropicalis); assay: as above
[12] = biological target: HA-HsSTING-R232H (human STING haplotype R232H), expressed in HEK 293T (Homo sapiens) (UniProt Q86WV6); assay: co-IP; HA-immunoprecipitation (anti-HA agarose) on whole-cell extracts of HEK 293T transiently co-expressing HA-STING and FADS-FLAG; TENTG-150 buffer, 4 h at 4 °C; HA peptide elution; Western blot
[13] = biological target: HA-HsSTING-R232H-∆CTT (∆342-379), expressed in HEK 293T (Homo sapiens) (UniProt Q86WV6); assay: as above
[14] = biological target: HA-HsSTING-AQ stably expressed in THP-1 STING-/- (THP-1^HsSTING-AQ) (Homo sapiens) (UniProt Q86WV6); assay: co-IP; HA-immunoprecipitation on whole-cell extracts of THP-1 STING-/- stably expressing HA-HsSTING haplotypes or mutant; FADS2 detected by Western blot
[15] = biological target: HA-HsSTING-HAQ stably expressed in THP-1 STING-/- (THP-1^HsSTING-HAQ) (Homo sapiens) (UniProt Q86WV6); assay: as above
[16] = biological target: HA-HsSTING-R232H stably expressed in THP-1 STING-/- (THP-1^HsSTING-R232H) (Homo sapiens) (UniProt Q86WV6); assay: as above

Molecule: XtFADS2-FLAG (fatty acid desaturase 2 of Xenopus tropicalis) (enzyme)
binding [1]: binds weakly

B2: endogenous MmFADS2 (fatty acid desaturase 2) of mouse embryonic fibroblasts (enzyme, UniProt Q9Z0R9 1-444)
chain: MGKGGNQGEGSTERQAPMPTFRWEEIQKHNLRTDRWLVIDRKVYNVTKWSQRHPGGHRVIGHYSGEDATDAFRAFHLDLDFVGKFLKPLLIGELAPEEPSLDRGKSSQITEDFRALKKTAEDMNLFKTNHLFFFLLLSHIIVMESLAWFILSYFGTGWIPTLVTAFVLATSQAQAGWLQHDYGHLSVYKKSIWNHVVHKFVIGHLKGASANWWNHRHFQHHAKPNIFHKDPDIKSLHVFVLGEWQPLEYGKKKLKYLPYNHQHEYFFLIGPPLLIPMYFQYQIIMTMISRRDWVDLAWAISYYMRFFYTYIPFYGILGALVFLNFIRFLESHWFVWVTQMNHLVMEIDLDHYRDWFSSQLAATCNVEQSFFNDWFSGHLNFQIEHHLFPTMPRHNLHKIAPLVKSLCAKHGIEYQEKPLLRALIDIVSSLKKSGELWLDAYLHK
binding [10]: binds | binding [11]: binds

B3: HsFADS2-FLAG (human fatty acid desaturase 2) (enzyme, UniProt O95864 1-444)
chain: MGKGGNQGEGAAEREVSVPTFSWEEIQKHNLRTDRWLVIDRKVYNITKWSIQHPGGQRVIGHYAGEDATDAFRAFHPDLEFVGKFLKPLLIGELAPEEPSQDHGKNSKITEDFRALRKTAEDMNLFKTNHVFFLLLLAHIIALESIAWFTVFYFGNGWIPTLITAFVLATSQAQAGWLQHDYGHLSVYRKPKWNHLVHKFVIGHLKGASANWWNHRHFQHHAKPNIFHKDPDVNMLHVFVLGEWQPIEYGKKKLKYLPYNHQHEYFFLIGPPLLIPMYFQYQIIMTMIVHKNWVDLAWAVSYYIRFFITYIPFYGILGALLFLNFIRFLESHWFVWVTQMNHIVMEIDQEAYRDWFSSQLTATCNVEQSFFNDWFSGHLNFQIEHHLFPTMPRHNLHKIAPLVKSLCAKHGIEYQEKPLLRALLDIIRSLKKSGKLWLDAYLHK
binding [12]: binds | binding [13]: binds

B4: FADS2 of THP-1 human myeloid cells (enzyme, UniProt O95864 1-444)
chain: B3 chain
binding [14]: binds | binding [15]: binds | binding [16]: binds

Second part, the molecule after the results:

binding [1]: binds
Molecule: MbFADS-FLAG (FADS-like protein of Monosiga brevicollis) (enzyme)

binding [2]: binds | binding [3]: no binding | binding [4]: binds | binding [5]: no binding | binding [6]: binds | binding [7]: binds | binding [8]: binds | binding [9]: binds
B1: MmFADS2-FLAG (fatty acid desaturase 2 of Mus musculus) (enzyme, UniProt Q9Z0R9 1-444)
chain: B2 chain
